Reference: US12161745B2, “Peptides and compositions for use in cosmetics” (LIPOTRUE, S.L., priority 2019, dated 2024)
Not every detail of the peptide structures is certain; ends, links or a residue may be inferred. Where a SMILES comes first, the peptide text is derived from it. The star is where a group is joined. Palmitoyl = CCCCCCCCCCCCCCCC(=O)*

Assays:
[1] = system: Homeodomain protein Mohawk; experiment: Mohawk synthesis in human dermal fibroblasts (ELISA); type: cell-based; details: for Mohawk content: intracellular; for Mohawk content, % variation with regard to the negative control: vs DMSO
collagen = experiment: Collagen cross-linking / fibril formation in solution (absorbance at 450 nm); type: biochemical; details: for % variation (increase) in collagen fibril formation vs negative control: vs DMSO
[2] = system: facial skin of female volunteers; experiment: Clinical evaluation of skin and wrinkle smoothing on female volunteers (AEVA); type: in vivo, human
[3] = system: primary human dermal fibroblasts (HDFa cells); experiment: Gene expression modulation by RT-qPCR in primary human dermal fibroblasts; type: cell-based; details: 0.005 mg/mL, vs untreated, normalized to GAPDH
collagen VI = experiment: Collagen VI synthesis in human dermal fibroblasts (ELISA); type: cell-based; details: 48 h; for Collagen VI content: cell culture medium; for Collagen VI content, % variation with regard to the negative control: vs DMSO
[4] = cosmetic formulation with 2% (m/v) of 0.05% (m/v) stock, twice daily, 56 days
[5] = volunteers with phototype V-VI skin

CCCCCCCCCCCCCCCC(=O)N[C@@H](Cc1c[nH]cn1)C(=O)N[C@@H](Cc1ccc(O)cc1)C(=O)N[C@@H](CCCNC(=N)N)C(=O)N[C@@H](C)C(N)=O [Pal-SEQ ID NO: 1-NH2, Pal-His-Tyr-Arg-Ala-NH2] (Palmitoyl-HYRA-NH2)
Mohawk content ([1]; 0.001 mg/mL, 24 h): 148.19 ± 8.44 pg/mL | Mohawk content, % variation with regard to the negative control ([1]; 0.001 mg/mL, 24 h): 9% | Mohawk content ([1]; 0.001 mg/mL, 48 h): 205.30 ± 11.53 pg/mL | Mohawk content, % variation with regard to the negative control ([1]; 0.001 mg/mL, 48 h): 31% | Mohawk content ([1]; 0.005 mg/mL, 24 h): 165.31 ± 7.24 pg/mL | Mohawk content, % variation with regard to the negative control ([1]; 0.005 mg/mL, 24 h): 21% | Mohawk content ([1]; 0.005 mg/mL, 48 h): 237.03 ± 10.44 pg/mL | Mohawk content, % variation with regard to the negative control ([1]; 0.005 mg/mL, 48 h): 51% | Mohawk content ([1]; 0.01 mg/mL, 24 h): 194.37 ± 7.30 pg/mL | Mohawk content, % variation with regard to the negative control ([1]; 0.01 mg/mL, 24 h): 43% | Mohawk content ([1]; 0.01 mg/mL, 48 h): 284.72 ± 13.51 pg/mL | Mohawk content, % variation with regard to the negative control ([1]; 0.01 mg/mL, 48 h): 81% | % variation (increase) in collagen fibril formation vs negative control (collagen; 0.02 mg/mL): 59% | % variation (increase) in collagen fibril formation vs negative control (collagen; 0.04 mg/mL): 111% | cross-linking of Collagen (collagen; 0.02 and 0.04 mg/mL): increases and accelerates | decrease in wrinkles depth (crow's feet area) versus initial time ([2]; average of all volunteers): 9% | decrease in cheek relief (Rz) versus initial time [2, 4]: ≤ 7% | decrease in cheek relief (Rz), average versus placebo [2, 4]: 10% | decrease in cheek roughness (Ra) versus initial time [2, 4]: ≤ 4% | decrease in cheek roughness (Ra), average versus placebo [2, 4]: 5% | decrease in wrinkles depth (crow's feet area) versus initial time ([2]; volunteers with phototype II-III skin): 6-7% | decrease in wrinkles depth (crow's feet area) versus initial time [2, 5]: 12% | decrease in wrinkles depth (crow's feet area) versus placebo [2, 5]: 20% | COL3A1 gene expression ([3]; 6 hours): upregulates | COL4A5 gene expression ([3]; 6 hours): upregulates | COL5A1 gene expression ([3]; 6 hours): upregulates | COL6A1 gene expression ([3]; 6 hours): upregulates | COL7A1 gene expression ([3]; 6 hours): upregulates | COL12A1 gene expression ([3]; 6 hours): upregulates | COL14A1 gene expression ([3]; 6 hours): upregulates | FN1 gene expression ([3]; 6 hours): Upregulates | HSP47 gene expression ([3]; 6 hours): Upregulates | LOXL2 gene expression ([3]; 6 hours): Upregulates | LOXL3 gene expression ([3]; 6 hours): Upregulates | MKX gene expression ([3]; 6 hours): upregulates | MMP1 gene expression ([3]; 6 hours): downregulates | MMP3 gene expression ([3]; 6 hours): downregulates | TGFB1 gene expression ([3]; 6 hours): Upregulates | ZEB2 gene expression ([3]; 6 hours): upregulates | COL13A1 gene expression ([3]; 24 hours): upregulates | Collagen VI content (collagen VI; 0.001 mg/mL): 12.22 ± 0.78 ng/mL | Collagen VI content, % variation with regard to the negative control (collagen VI; 0.001 mg/mL): 11% | Collagen VI content (collagen VI; 0.005 mg/mL): 12.87 ± 0.97 ng/mL | Collagen VI content, % variation with regard to the negative control (collagen VI; 0.005 mg/mL): 16% | Collagen VI content (collagen VI; 0.01 mg/mL): 15.52 ± 0.80 ng/mL | Collagen VI content, % variation with regard to the negative control (collagen VI; 0.01 mg/mL): 40%
